From patent publication US8410153B2, “Naphthalene isoxazoline invertebrate pest control agents” (E.I. du Pont de Nemours and Company, priority 2007, dated 2013)
Some results were stated once for a whole list of compounds, not compound by compound. For some of these results: At least one structure is not confirmed: it was looked up by name or label, or the drawing left a doubt.

Tests used:
Assay type in all cases: in vivo
[1] = system: cat flea (Ctenocephalides felis); test: Test L: control of cat flea, treated filter paper in tube; settings: 20 μL of 500 ppm solution on filter paper; evaluated 48 hours later
[2] = system: cotton melon aphid (Aphis gossypii); test: Test G: control of cotton melon aphid on cotton plant, contact and/or systemic; settings: sprayed at 250 ppm
[3] = system: cat flea (Ctenocephalides felis); test: Test N: control of cat flea on orally dosed beagle; settings: oral 2.5 mg/kg, through 29 days
[4] = system: green peach aphid (Myzus persicae); test: Test F: control of green peach aphid on radish plant, contact and/or systemic; settings: sprayed at 250 ppm; held 6 days
[5] = system: cat flea (Ctenocephalides felis); test: Test J: control of cat flea on orally dosed mouse, fleas applied twenty-four hours after dosing; settings: CD-1 mouse, oral 10 mg/kg, evaluated 48 hours after flea application
[6] = system: cat flea (Ctenocephalides felis); test: Test I: control of cat flea on orally dosed mouse, fleas applied two hours after dosing; settings: CD-1 mouse, oral 10 mg/kg, evaluated 48 hours after flea application
[7] = system: potato leafhopper (Empoasca fabae); test: Test C: control of potato leafhopper on Soleil bean plant, contact and/or systemic; settings: held 6 days
[8] = system: corn planthopper (Peregrinus maidis); test: Test D: control of corn planthopper on maize plant, contact and/or systemic; settings: sprayed at 250 ppm; held 6 days
[9] = system: silverleaf whitefly (Bemisia tabaci); test: Test H: control of silverleaf whitefly nymphs on cotton plant; settings: sprayed at 250 ppm; held 6 days; 2nd and 3rd instar nymphs
[10] = system: relapsing fever tick (Ornithodoros turicata); test: Test M: control of relapsing fever tick, membrane feeding on treated bovine blood; settings: 30 ppm in bovine blood; nymphs; evaluated 48 hours later
[11] = system: American dog tick (Dermacentor variabilis); test: Test O: control of American dog tick on orally dosed beagle; settings: oral 2.5 mg/kg, through 32 days
[12] = system: cat flea (Ctenocephalides felis); test: Test K: control of cat flea on subcutaneously dosed mouse; settings: CD-1 mouse, subcutaneous 10 mg/kg; fleas applied two hours after dosing; evaluated 48 hours after flea application

Compound | flea mortality [1] | mortality [2] | flea mortality [3] | mortality [4] | flea mortality [5] | flea mortality [6] | control efficacy: mortality ([7]; sprayed at 50 ppm) | control efficacy: mortality ([7]; sprayed at 250 ppm) | mortality [8] | mortality [9] | tick mortality [10] | tick mortality [11] | flea mortality [12]
CSCCNC(=O)c1ccc(C2=NOC(c3cc(C(F)(F)F)cc(C(F)(F)F)c3)(C(F)(F)F)C2)c2ccccc12 (racemic) [Compound 58] | at least 50% | at least 80% | at least 90% | at least 80% | at least 50% | at least 50% | ≥ 80% | ≥ 80% | – | – | – | – | –
CSCCNC(=O)c1ccc(C2=NOC(c3cc(Br)cc(Br)c3)(C(F)(F)F)C2)c2ccccc12 (stereo not shown) [Compound 21] | at least 50% | at least 80% | – | at least 80% | at least 50% | at least 50% | ≥ 80% | ≥ 80% | at least 80% | – | – | – | –
O=C(CNC(=O)c1ccc(C2=NOC(c3cc(Br)cc(C(F)(F)F)c3)(C(F)(F)F)C2)c2ccccc12)NCC(F)(F)F (racemic) [Compound 52] | at least 50% | at least 80% | at least 90% | at least 80% | at least 50% | at least 50% | ≥ 80% | ≥ 80% | – | at least 80% | – | – | –
CC(NC(=O)c1ccc(C2=NOC(c3cc(C(F)(F)F)cc(C(F)(F)F)c3)(C(F)(F)F)C2)c2ccccc12)C(=O)NCC(F)(F)F (mixture of isomers) [Compound 94] | – | – | at least 90% | at least 80% | – | – | – | – | – | – | – | – | –
CS(=O)(=O)CCNC(=O)c1ccc(C2=NOC(c3cc(C(F)(F)F)cc(C(F)(F)F)c3)(C(F)(F)F)C2)c2ccccc12 (racemic) [Compound 49] | – | – | at least 90% | – | at least 50% | at least 50% | ≥ 80% | ≥ 80% | – | – | – | – | –
CS(=O)(=O)CCNC(=O)c1ccc(C2=NOC(c3cc(Cl)cc(Cl)c3)(C(F)(F)F)C2)c2ccccc12 (stereo not shown) [Compound 20] | at least 50% | – | – | – | at least 50% | at least 50% | ≥ 80% | ≥ 80% | – | – | at least 50% | – | –
CC(C)NC(=O)CNC(=O)c1ccc(C2=NOC(c3cc(Cl)cc(Cl)c3)(C(F)(F)F)C2)c2ccccc12 (stereo not shown) [Compound 5] | at least 50% | – | – | at least 80% | at least 50% | at least 50% | ≥ 80% | ≥ 80% | – | – | at least 50% | – | –
CCNC(=O)C(C)NC(=O)c1ccc(C2=NOC(c3cc(C(F)(F)F)cc(C(F)(F)F)c3)(C(F)(F)F)C2)c2ccccc12 (stereo not shown) [Compound 88] | – | at least 80% | – | at least 80% | at least 50% | at least 50% | ≥ 80% | ≥ 80% | at least 80% | at least 80% | – | – | –
O=C(CNC(=O)c1ccc(C2=NOC(c3cc(C(F)(F)F)cc(C(F)(F)F)c3)(C(F)(F)F)C2)c2ccccc12)NCC(F)(F)F (racemic) [Compound 37] | at least 50% | – | at least 90% | at least 80% | at least 50% | at least 50% | ≥ 80% | ≥ 80% | – | – | – | at least 90% | –
CSCCNC(=O)c1ccc(C2=NOC(c3cc(Cl)c(Cl)c(Cl)c3)(C(F)(F)F)C2)c2ccccc12 (stereo not shown) [Compound 15] | at least 50% | – | – | at least 80% | at least 50% | at least 50% | ≥ 80% | ≥ 80% | – | – | at least 50% | – | –
O=C(NCCO)c1ccc(C2=NOC(c3cc(Cl)cc(Cl)c3)(C(F)(F)F)C2)c2ccccc12 (stereo not shown) [Compound 11] | at least 50% | – | – | – | at least 50% | at least 50% | – | – | – | – | – | – | at least 50%
CC(NC(=O)c1ccc(C2=NOC(c3cc(Cl)cc(Cl)c3)(C(F)(F)F)C2)c2ccccc12)C(=O)NCC(F)(F)F (mixture of isomers) [Compound 16] | at least 50% | – | – | at least 80% | at least 50% | at least 50% | ≥ 80% | ≥ 80% | at least 80% | at least 80% | at least 50% | – | –
CNC(=O)C(C)NC(=O)c1ccc(C2=NOC(c3cc(Br)cc(C(F)(F)F)c3)(C(F)(F)F)C2)c2ccccc12 (mixture of isomers) [Compound 141] | – | at least 80% | – | at least 80% | at least 50% | at least 50% | ≥ 80% | – | at least 80% | at least 80% | – | – | –
CC(C)NC(=O)CNC(=O)c1ccc(C2=NOC(c3cc(Cl)cc(C(F)(F)F)c3)(C(F)(F)F)C2)c2ccccc12 (stereo not shown) [Compound 63] | – | at least 80% | – | at least 80% | at least 50% | at least 50% | ≥ 80% | ≥ 80% | at least 80% | at least 80% | – | – | –
CC(C)(NC(=O)c1ccc(C2=NOC(c3cc(Cl)cc(Cl)c3)(C(F)(F)F)C2)c2ccccc12)C(=O)NCC(F)(F)F (stereo not shown) [Compound 4] | at least 50% | – | – | at least 80% | at least 50% | at least 50% | ≥ 80% | ≥ 80% | at least 80% | – | – | – | at least 50%
CC(NC(=O)c1ccc(C2=NOC(c3cc(Cl)cc(C(F)(F)F)c3)(C(F)(F)F)C2)c2ccccc12)C(=O)NCC(F)(F)F (mixture of isomers) [Compound 106] | – | at least 80% | – | at least 80% | at least 50% | at least 50% | ≥ 80% | ≥ 80% | at least 80% | at least 80% | – | – | –
CS(=O)(=O)CCNC(=O)c1ccc(C2=NOC(c3cc(Cl)cc(C(F)(F)F)c3)(C(F)(F)F)C2)c2ccccc12 (stereo not shown) [Compound 66] | at least 50% | – | at least 90% | at least 80% | at least 50% | at least 50% | ≥ 80% | ≥ 80% | – | – | – | – | –
CCNC(=O)CNC(=O)c1ccc(C2=NOC(c3cc(C(F)(F)F)cc(C(F)(F)F)c3)(C(F)(F)F)C2)c2ccccc12 (stereo not shown) [Compound 100] | – | at least 80% | – | at least 80% | at least 50% | at least 50% | ≥ 80% | ≥ 80% | at least 80% | at least 80% | – | – | –
CCNC(=O)C(C)NC(=O)c1ccc(C2=NOC(c3cc(Br)cc(C(F)(F)F)c3)(C(F)(F)F)C2)c2ccccc12 (mixture of isomers) [Compound 142] | – | at least 80% | – | at least 80% | at least 50% | at least 50% | ≥ 80% | – | at least 80% | at least 80% | – | – | –
CC(C)NC(=O)CNC(=O)c1ccc(C2=NOC(c3cc(C(F)(F)F)cc(C(F)(F)F)c3)(C(F)(F)F)C2)c2ccccc12 (racemic) [Compound 40] | at least 50% | at least 80% | at least 90% | at least 80% | at least 50% | at least 50% | ≥ 80% | ≥ 80% | – | at least 80% | – | – | –
CC(C)NC(=O)C(C)NC(=O)c1ccc(C2=NOC(c3cc(Cl)cc(C(F)(F)F)c3)(C(F)(F)F)C2)c2ccccc12 (mixture of isomers) [Compound 107] | – | at least 80% | – | at least 80% | at least 50% | at least 50% | ≥ 80% | ≥ 80% | at least 80% | at least 80% | – | – | –
